In patent US9150638B2, “Factor XII inhibitors for treating interstitial lung disease” (Justus-Liebig-Universität Giessen, priority 2010, dated 2015):
At least one compound was matched to its structure with a doubt left.

Tests used:
murine lung fibroblasts = assay: Proliferation assay, [3H]-thymidine incorporation after FXIIa stimulation; type: cell-based; conditions: added or preincubated 1-2 hours before FXIIa; 10.0 μM PD98059, 5 μM SP600125, 0.7 μM Wortmannin, 3 μM SB203580; blocking antibodies 5 μg/ml
Procedure: Human lung specimens of the pulmonary parenchyma and mouse lungs were chopped into <1 mm^3 pieces. The minced pieces were washed twice with PBS and then plated in 100-mm dishes (Greiner-bio-one, Frickenhausen, Germany). The specimens were cultured with Dulbecco's modified Eagle's medium (DMEM; Invitrogen, Karlsruhe, Germany) supplemented with 10% fetal calf serum (FCS; HyClone, South Logan, UT), and 1% penicillin/streptomycin (Invitrogen) in humidified atmosphere of 5% CO2 at 37° C. Purity of isolated fibroblasts was verified by positive staining for vimentin, fibronectin and collagen IV. All experiments were carried out with lung fibroblasts from passages 3-4. […] Cells were treated with 3-9 μg/ml FXIIa alone or in the presence of its specific inhibitors: Corn Trypsin Inhibitor ([…]-chloromethylketone (PCK, Bachem, Weil am Rhein, Germany) or uPAR synthetic peptides. After 24-36 hours the cells were exposed to [3H]Thymidine (0.2 μCi per well) for 6-12 hours, rinsed three times with PBS and solubilized with 0.2 ml 0.5M sodium hydroxide. 0.1 ml of the solubilized material was quantified by liquid scintillation counting (TRI-CARB® 1500, A Canbera Company, Meriden, Conn.). [^3H]Thymidine incorporation was expressed as absolute radioactivity (counts per minute per well).

FXII = assay: TGF-β1-induced FXII expression in HLF; type: cell-based, human; conditions: HLF treated with inhibitor 1 h prior to TGF-β1 for 48 h
Procedure: Human lung specimens of the pulmonary parenchyma and mouse lungs were chopped into <1 mm^3 pieces. The minced pieces were washed twice with PBS and then plated in 100-mm dishes (Greiner-bio-one, Frickenhausen, Germany). The specimens were cultured with Dulbecco's modified Eagle's medium (DMEM; Invitrogen, Karlsruhe, Germany) supplemented with 10% fetal calf serum (FCS; HyClone, South Logan, UT), and 1% penicillin/streptomycin (Invitrogen) in humidified atmosphere of 5% CO2 at 37° C. Purity of isolated fibroblasts was verified by positive staining for vimentin, fibronectin and collagen IV. All experiments were carried out with lung fibroblasts from passages 3-4. […]
Proteins separated on SDS polyacrylamide gel were transferred to a PVDF membrane (Amersham Biosciences, Freiburg, Germany) using wet transfer technique in transfer buffer (25 mM Tris, 192 mM Glycine, 20% (v/v) Methanol) for 1 h at 100V. After blocking with 5% non-fat dry milk in tris-buffered saline (TBS; 25 mM Tris-Cl, 150 mM NaCl, pH 7.5) containing 0.1% (v/v) Tween 20 (TBS-T), the membranes were incubated at 4° C. overnight with appropriate primary antibody diluted in 1% BSA in TBS-T. After 1 h incubation with peroxidase-labelled secondary antibody (all from Dako, Gostrup, Denmark) proteins were detected using ECL Plus Kit (Amersham Biosciences, Freiburg, Germany). […]

Smad 3 = assay: Western blot of Smad 3 phosphorylation in TGF-β1 treated HLF; type: cell-based, human
Procedure: Proteins separated on SDS polyacrylamide gel were transferred to a PVDF membrane (Amersham Biosciences, Freiburg, Germany) using wet transfer technique in transfer buffer (25 mM Tris, 192 mM Glycine, 20% (v/v) Methanol) for 1 h at 100V. After blocking with 5% non-fat dry milk in tris-buffered saline (TBS; 25 mM Tris-Cl, 150 mM NaCl, pH 7.5) containing 0.1% (v/v) Tween 20 (TBS-T), the membranes were incubated at 4° C. overnight with appropriate primary antibody diluted in 1% BSA in TBS-T. After 1 h incubation with peroxidase-labelled secondary antibody (all from Dako, Gostrup, Denmark) proteins were detected using ECL Plus Kit (Amersham Biosciences, Freiburg, Germany). To determine the amounts of protein loaded on the gel, blots were in 1 hour (stripping buffer: 100 mM Glycine, 1% HCl) and reprobed using an anti-β-actin or appropriate anti-pan antibody.

**Q.** For `Oc1c2ccccc2c2c3c(cccc13)N=N2` [SP600125], which “FXIIa-induced proliferation ([3H]-thymidine incorporation)” value (murine lung fibroblasts) is on record?
**A.** No change in DNA sythesis

**Q.** And the “FXII expression in response to TGF-β1 (Western blot)” value (FXII)?
**A.** reduction of FXII expression

**Q.** What about the “Smad 3 phosphorylation in response to TGF-β1” value (Smad 3) of the same molecule?
**A.** did not reduced

**Q.** For `COC[C@H]1OC(=O)c2coc3c2[C@@]1(C)C1=C(C3=O)[C@@H]2CCC(=O)[C@@]2(C)C[C@H]1OC(C)=O` [Wortmannin], which “FXIIa-induced proliferation ([3H]-thymidine incorporation)” value (murine lung fibroblasts) is on record?
**A.** No change in DNA sythesis

**Q.** What about the “FXII expression in response to TGF-β1 (Western blot)” value (FXII) of the same molecule?
**A.** No change in FXII expression
